Reference: patent US4178371A, “Tetrapeptide derivatives” (Reckitt & Colman Products Limited, priority 1977, dated 1979)

Tested on: rat
Assay: rat tail flick test (R.T.F.), intravenous administration
Format: in vivo
Conditions: hot water 55° as nociceptive stimulus, i.v.
Description: The test used for the detection of their agonist activity at opiate receptor sites is that employing the transmurally stimulates guinea pig ileum preparation described in Kosterlitz et al., Brit. J. Pharmacol, and Chemotherapy 33. 266-276 (1968). […] Exp. Ther. 125, 237 (1959) and by the rat tail flick test (intravenous administration) according to Jansen et al., Arzneim Forsch. 13, 266 (1963).
In the rat tail flick test hot water (maintained at 55°±1°C.) is used as the nociceptive stimulus.
The following are data obtained with compounds of the invention when tested by the guinea pig ileum (G.P.I., activity compared with Met enkephalin), Hendershot et al (H & F) and rat tail pressure (R.T.F) tests.

Compound: CN1CC[C@]23c4c5ccc(O)c4O[C@H]2[C@@H](O)C=C[C@H]3[C@H]1C5 [Morphine, reference compound]
- ED50: 2.2 mg/kg
